This is one part of the list. Potency and affinity values are given separately.

In ChEMBL document CHEMBL4513141, “CO-ADD screening of NIH (USA) - Clinical Collection” (2021) one finds Inhibition data, which are given here for 71 compounds.

The subject of this assay is Pseudomonas aeruginosa. The following applies: Concentration 20 uM; ASSAY_TEST Inhibition of Bacterial Growth; detection method Absorption (OD600); MEDIA CAMHB; plate type 384well; NBS; CORNING #3640; time 18 hr.
With `CC(CCCCC(=O)Nc1ccc(C(F)(F)F)cc1)NCCc1c[nH]cn1.O=C(O)/C=C\C(=O)O.O=C(O)/C=C\C(=O)O` (stereo unspecified), the Inhibition (as a rule, the relative decrease from the control value, in per cent) is 23.47%.
With `C=C(CC)C(=O)c1ccc(OCC(=O)O)c(Cl)c1Cl` [ETHACRYNIC ACID], the Inhibition was 11.3%.
Turning to `CN(C)CC/C=C1/c2ccccc2COc2ccc(CC(=O)O)cc21.Cl` [OLOPATADINE HYDROCHLORIDE], the Inhibition is recorded as -7.29%.
For the compound `CC1=C(C(=O)O)N2C(=O)[C@@H](NC(=O)[C@H](N)c3ccccc3)[C@H]2SC1.O` [CEPHALEXIN], the Inhibition is -10.13%.
Then `CCOC(=O)N1CCC(=C2c3ccc(Cl)cc3CCc3cccnc32)CC1` [LORATADINE], with 15.05%; and `Sc1ncnc2nc[nH]c12` [MERCAPTOPURINE ANHYDROUS], with 11.75%; and `O=C1C(c2c(O)[nH]c3ccccc23)=Nc2ccccc21`, with 5.7%.
The result for `O=C1N[C@H](C(=O)O)CS1` [PROCYSTEINE] reads 15.77%; that for `C[C@H](N[C@@H](CCc1ccccc1)C(=O)O)C(=O)N1CCC[C@H]1C(=O)O` [ENALAPRILAT ANHYDROUS], 3.43%.
Take `COC(=O)[C@H](c1ccccc1Cl)N1CCc2sccc2C1` [CLOPIDOGREL]: the Inhibition was 15.58%.
Then `CCCSc1ccc2[nH]c(NC(=O)OC)nc2c1` [ALBENDAZOLE], with 1.7%; and `Cc1ccc(N(CC2=NCCN2)c2cccc(O)c2)cc1` [PHENTOLAMINE], with 4.16%; and `O=C(O)CCc1nc(-c2ccccc2)c(-c2ccccc2)o1` [OXAPROZIN], with 23.23%.
With `Clc1ccc2c(c1)C(N1CCNCC1)=Nc1ccccc1O2` [AMOXAPINE], the Inhibition was 14.02%.
With `CCN(CC)CCNC(=O)c1cc(Cl)c(N)cc1OC.Cl`, the Inhibition is on record as 3.44%.
Regarding `COC(=O)C1=C(C)NC(C)=C(C(=O)OCCN(C)Cc2ccccc2)C1c1cccc([N+](=O)[O-])c1.Cl` (stereo unspecified) [NICARDIPINE HYDROCHLORIDE], the Inhibition came to 3.41%.
As to `Oc1ncc(F)cn1`, the Inhibition was found to be 19.68%.
The result for `CCC[C@@H]1C[C@@H](C(=O)N[C@@H]([C@H]2O[C@H](SC)[C@H](O)[C@@H](O)[C@H]2O)[C@@H](C)O)N(C)C1.Cl.O` [LINCOMYCIN HYDROCHLORIDE] reads 18.45%.
With `COc1c2occc2cc2ccc(=O)oc12` [METHOXSALEN], the Inhibition turned out to be 9.57%.
Consider `N#Cc1ccc(C(c2ccc(C#N)cc2)n2cncn2)cc1` [LETROZOLE], for which the Inhibition came to 8.9%.
As for `CC(=O)OCC(=O)[C@@]1(O)CC[C@H]2[C@@H]3CCC4=CC(=O)C=C[C@]4(C)[C@H]3[C@@H](O)C[C@@]21C` [PREDNISOLONE ACETATE], the Inhibition came to 16.93%.
Then `CN1CCN(CC/C=C2/c3ccccc3Sc3ccc(S(=O)(=O)N(C)C)cc32)CC1` [THIOTHIXENE], with 4.76%.
The result for `CC(C)(C(=O)O)c1ccc(C(O)CCCN2CCC(C(O)(c3ccccc3)c3ccccc3)CC2)cc1.Cl` (stereo unspecified) [FEXOFENADINE HYDROCHLORIDE] reads 17.28%.
For the compound `CCC(=O)[N-]S(=O)(=O)c1ccc(-c2c(-c3ccccc3)noc2C)cc1.[Na+]` [PARECOXIB SODIUM], the Inhibition stood at 7.03%.
Take `CCN(CC)CC(=O)Nc1c(C)cccc1C` [LIDOCAINE]: the Inhibition amounted to 23.12%.
For `CNCCCC12CCC(c3ccccc31)c1ccccc12.Cl` [MAPROTILINE HYDROCHLORIDE], the Inhibition came out at 17%.
Then `CC(=O)O.CNC(=N)NCCC[C@H](N)C(=O)O` [TILARGININE ACETATE], with -0.05%.
Take `Cc1cn([C@H]2C=C[C@@H](CO)O2)c(=O)[nH]c1=O` [STAVUDINE]: the Inhibition is 16.08%.
Then `CC(=O)NS(=O)(=O)c1ccc(N)cc1` [SULFACETAMIDE], with 6.24%; and `NS(=O)(=O)c1cc2c(cc1C(F)(F)F)NCNS2(=O)=O` [HYDROFLUMETHIAZIDE], with 10.41%; and `CN1CCC(=C2c3ccccc3C=Cc3ccccc32)CC1.Cl` [CYPROHEPTADINE HYDROCHLORIDE], with 15.52%.
Consider `CS(=O)(=O)OCCCCOS(C)(=O)=O` [BUSULFAN], for which the Inhibition is given as 15.86%.
Turning to `CN1C(=O)CC[C@H]1c1cccnc1` [COTININE], the Inhibition is reported as 2.81%.
`CCCOc1ccc(C(=O)OCCN(CC)CC)cc1N.Cl` [PROPARACAINE HYDROCHLORIDE]: the Inhibition is 1.72%.
In the case of `CC(C)[N+](C)(CCOC(=O)C1c2ccccc2Oc2ccccc21)C(C)C.[Br-]` [PROPANTHELINE BROMIDE], the Inhibition is on record as 14.79%.
Regarding `CCOC(=O)[C@H](CCc1ccccc1)N[C@@H](C)C(=O)N1Cc2ccccc2C[C@H]1C(=O)O.Cl` [QUINAPRIL HYDROCHLORIDE], the Inhibition worked out at 14.62%.
Turning to `C[C@@H](O)[C@H]1C(=O)N2C(C(=O)O)=C(S[C@@H]3CN[C@H](C(=O)N(C)C)C3)[C@H](C)[C@H]12` [MEROPENEM], the Inhibition is recorded as 8.16%.
For the compound `CS(=O)(=O)O.Cc1c(O)cccc1C(=O)N[C@@H](CSc1ccccc1)[C@H](O)CN1C[C@H]2CCCC[C@H]2C[C@H]1C(=O)NC(C)(C)C` [NELFINAVIR MESYLATE], the Inhibition is 9.77%.
Consider `C[C@]12CC[C@@H]3c4ccc(OS(=O)(=O)[O-])cc4CC[C@H]3[C@@H]1CCC2=O.[Na+]` [ESTRONE SODIUM SULFATE], for which the Inhibition was determined as 7.52%.
Turning to `Nc1nc(Cl)nc2c1ncn2[C@@H]1O[C@H](CO)[C@@H](O)[C@H]1O`, the Inhibition stood at 14.41%.
As to `O=c1c(O[C@@H]2O[C@H](CO)[C@H](O)[C@H](O)[C@H]2O)c(-c2ccc(O)c(O)c2)oc2cc(O)cc(O)c12` [HYPEROSIDE], the Inhibition is 12.67%.
Take `O=C1N=C([O-])NC1(c1ccccc1)c1ccccc1.[Na+]` [PHENYTOIN SODIUM]: the Inhibition is 8.36%.
`OCCN(CCO)c1nc(N2CCCCC2)c2nc(N(CCO)CCO)nc(N3CCCCC3)c2n1` [DIPYRIDAMOLE]: the Inhibition turned out to be 9.85%.
For the compound `COCCCC/C(=N\OCCN)c1ccc(C(F)(F)F)cc1.O=C(O)/C=C\C(=O)O` [FLUVOXAMINE MALEATE], the Inhibition is 8.03%.
Take `O=C1c2c(O)cc(O)cc2O[C@H](c2ccc(O)c(O)c2)[C@@H]1O`: the Inhibition is 14.99%.
As for `CN(C)CCC(c1ccc(Cl)cc1)c1ccccn1.O=C(O)/C=C\C(=O)O` (stereo unspecified) [CHLORPHENIRAMINE MALEATE], the Inhibition was 18.65%.
For `O=C(O)c1cc(/N=N/c2ccc(S(=O)(=O)Nc3ccccn3)cc2)ccc1O` [SULFASALAZINE], the Inhibition turned out to be 7.1%.
Turning to `COc1ccc(OC)c(C(O)CNC(=O)CN)c1.Cl` (stereo unspecified) [MIDODRINE HYDROCHLORIDE], the Inhibition worked out at 15.97%.
`CC(N)C12CC3CC(CC(C3)C1)C2.Cl` (stereo unspecified) [RIMANTADINE HYDROCHLORIDE]: the Inhibition came to 8.62%.
Regarding `CC1(C)S[C@@H]2[C@H](/N=C/N3CCCCCC3)C(=O)N2[C@H]1C(=O)O` [AMDINOCILLIN], the Inhibition was 20.19%.
Then `CCN(CC)CCOC(=O)c1ccc(N)cc1.Cl` [PROCAINE HYDROCHLORIDE], with 12.48%; and `Cc1cc2c(s1)Nc1ccccc1N=C2N1CCN(C)CC1` [OLANZAPINE], with 33%.
In the case of `Cc1nc2ccccn2c(=O)c1CCN1CCC(C(=O)c2ccc(F)cc2)CC1` [PIRENPERONE], the Inhibition is listed as 9.74%.
Then `CSc1nc2cc(Cl)c(Oc3cccc(Cl)c3Cl)cc2[nH]1` [TRICLABENDAZOLE], with 14.05%; and `O=C(CCNNC(=O)c1ccncc1)NCc1ccccc1` [NIALAMIDE], with 16.52%; and `NC(=O)c1cnccn1` [PYRAZINAMIDE], with 13.64%.
Turning to `Cc1ncc([N+](=O)[O-])n1CC(C)O` (stereo unspecified) [SECNIDAZOLE], the Inhibition is 10.92%.
On to `NC(Cc1cc(I)c(Oc2ccc(O)c(I)c2)c(I)c1)C(=O)O` (stereo unspecified) [RATHYRONINE], for which the Inhibition was found to be 15.38%.
Then `CC(=O)CCCCn1c(=O)c2c(ncn2C)n(C)c1=O` [PENTOXIFYLLINE], with 13.94%; and `O=C(NCCN1CCOCC1)c1ccc(Cl)cc1` [MOCLOBEMIDE], with 7.86%; and `CC(C(O)c1ccc(O)cc1)N1CCC(Cc2ccccc2)CC1.O.O=C(O)C(O)C(O)C(=O)O` (stereo unspecified), with 38.67%.
Take `C[C@]12CCC(=O)C=C1CC[C@@H]1[C@@H]2C(=O)C[C@@]2(C)[C@H]1CC[C@]2(O)C(=O)CO` [CORTISONE]: the Inhibition is on record as 19.36%.
Then `C[C@@H]1C[C@H]2[C@@H]3C[C@H](F)C4=CC(=O)C(Cl)=C[C@]4(C)[C@@]3(F)[C@@H](O)C[C@]2(C)[C@@]1(O)C(=O)CO` [HALOMETASONE], with 3.47%; and `CC(=O)CCCCn1cnc2c1c(=O)n(C)c(=O)n2C` [LOMIFYLLINE], with 10.51%.
Turning to `CC(=O)OCC(=O)NCCCOc1cccc(CN2CCCCC2)c1.Cl` [ROXATIDINE ACETATE HYDROCHLORIDE], the Inhibition came to 15.86%.
Turning to `CC(=O)O[C@]1(C(C)=O)CC[C@H]2[C@@H]3C[C@H](C)C4=CC(=O)CC[C@]4(C)[C@H]3CC[C@@]21C` [MEDROXYPROGESTERONE ACETATE], the Inhibition was 8.66%.
Then `CCC(=C(c1ccccc1)c1ccc(OCCN(C)C)cc1)c1ccccc1`, with 6.08%; and `O=c1c(O[C@@H]2O[C@H](CO)[C@@H](O)[C@H](O)[C@H]2O)c(-c2ccc(O)c(O)c2)oc2cc(O)cc(O)c12` [ISOQUERCETIN], with 60.53%; and `CCCCNc1cc(C(=O)O)cc(S(N)(=O)=O)c1Oc1ccccc1` [BUMETANIDE], with 10.04%.
Then `Cl.NC12CC3CC(CC(C3)C1)C2` [AMANTADINE HYDROCHLORIDE], with 10.58%.
Then `CN(C)CCOC(C)(c1ccccc1)c1ccccn1.O=C(O)CCC(=O)O` (stereo unspecified) [DOXYLAMINE SUCCINATE], with 8.6%.
